Results: patent US10010516B2, “Method for regulating retinal endothelial cell viability” (The University of Tennessee Research Foundation, priority 2012, dated 2018)
At least one compound was matched to its structure with a doubt left.

System: Akt
Assay: Western blot of phosphorylated (Ser473) and total Akt in RECs
Type: cell-based, human
Settings: high glucose, LY294002 10 μM pretreatment 3 h, then KZ-41 10 μM 2 hr

O=c1cc(N2CCOCC2)oc2c(-c3ccccc3)cccc12 [LY294002]
KZ-41-induced Akt phosphorylation: complete block
